Out of some 6,900 compounds screened, fewer than 10 were called active. Calls follow the shape of the dose curve; as a rule, active = well fitted curve in the direction sought with a large enough effect; inconclusive = small, poorly fitted or top-dose-only effect, or another doubt; inactive = no such curve, though single readings can be large or run the other way. The list shows a part of the results.
These compounds were tested against Metallo-beta-lactamase type 2 (Klebsiella pneumoniae) (UniProt C7C422) (assay: qHTS to identify inhibitors of the New Delhi Metallo-beta-lactamase (NDM): primary screen against the NCATS Gemini Collection). Conditions: NDM-1 enzyme, meropenem hydrolysis, absorbance 300 nm; at 38.4 µM (top of the series) unless noted.
Procedure, shortened: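 Meropenem hydrolysis (50 uM final) by 2 nM NDM-1 read as 300 nm absorbance after 30 min, following >30 min compound–enzyme preincubation in HEPES pH 7.0 with 1 uM ZnSO4 and 0.01% Tween20.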
Also: % of control where 0% means no effect.

The chains behind the UniProt entries cited, without tags or fusion partners. Where a name states a change or a piece, a line headed by the entry shows the natural chain unless it says otherwise.
UniProt C7C422: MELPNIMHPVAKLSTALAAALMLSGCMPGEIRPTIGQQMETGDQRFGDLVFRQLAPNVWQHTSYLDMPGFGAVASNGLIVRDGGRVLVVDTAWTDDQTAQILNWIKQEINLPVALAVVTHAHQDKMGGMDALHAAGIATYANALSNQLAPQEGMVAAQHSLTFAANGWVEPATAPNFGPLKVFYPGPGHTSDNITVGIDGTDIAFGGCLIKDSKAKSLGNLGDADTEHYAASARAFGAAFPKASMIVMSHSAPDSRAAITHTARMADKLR

Activity % (negative = inhibition), inactive:
COC1CCN(CC2CCCCCN2C(=O)NCc2ccc(F)cc2)CC1 (centres undefined) -0.412%, COCCc1noc(CNC(=O)c2ccc(-c3ccccc3Cl)o2)n1 20.8%, CCOCCCNC(=O)c1cc2cn(C3CC3)cc2s1 3.22%, O=C1NCc2ccccc2CC12CCCN2Cc1ccc(F)cc1F (centres undefined) 1.41%, O=C1Nc2ccc(-c3ccsc3)cc2C(=O)N2CCN(C(=O)CO)C[C@H]12 7.77% [at 57.5 µM], CCn1cc(S(=O)(=O)N2CCC(c3noc(-c4ccncc4)n3)C2)cn1 (centres undefined) -3.52%, CCCC(=O)N1Cc2ccccc2CC2(CCCN(Cc3ccccn3)C2)C1 (centres undefined) -5.79%, O=C(NCc1c[nH]c2ncccc12)c1ccccc1Cl -0.0313% [at 57.5 µM], c1ccc2cc(-c3noc([C@@H]4Cc5nc[nH]c5CN4CC4CCCCC4)n3)ccc2c1 63.5% [at 57.5 µM], CN[C@@H](C)C(=O)N1CCC(c2cc(N3CCOCC3)nc(C)n2)CC1 -7.44%, COCC(=O)N[C@H]1CCN(C(=O)COC)[C@H](C(=O)N[C@@H](Cc2cccs2)C(N)=O)C1 0.56%, NC(=O)[C@H](CC1CCCCC1)NC(=O)[C@@H]1CN(C(=O)Nc2ccccc2)CCN1S(=O)(=O)c1ccccc1 2.27%, COc1ccc(CC(=O)N2CCCC2C(=O)N2CCC(c3nc4ccncc4[nH]3)C2)cc1 (centres undefined) -2.24%, C[C@@]1(O)CCN(C(=O)c2cccc(F)c2)C[C@H]1N1CCCC1 0.632%, CNC(=O)c1cc(C2CC2)nc2c1c(C1CCN(C(=O)Cc3ccc(OC)cc3)CC1)nn2C 3.96%, CC(C)N1CCN(C(=O)C2CCN(c3cnn(CC4CC4)c(=O)c3)C2)CC1 (centres undefined) 8.43%, CC(C)c1noc(C2CCCN(S(=O)(=O)c3cccs3)CCC(=O)NCC2)n1 (centres undefined) -16.5%, CC(C)C[C@H]1NC(=O)[C@@H]2C[C@@H](NC(=O)CS(=O)(=O)c3ccccc3)CCN2C1=O 5.22% [at 57.5 µM], CCn1ncc(CN2CC[C@@H]3CN(S(C)(=O)=O)[C@@H]3C2)c1C -2.7%, CNC(=O)C(C)(C)N1CCC[C@H]1C(=O)NC1CCCCC1 -1.25% [at 57.5 µM], O=C1NC2(CCCN([S+](=O)([O-])c3ccsc3)C2)COc2ccccc21 (centres undefined) 1.62%, COc1cc(SC)ccc1C(=O)N[C@H]1CCN2C(=O)N(c3cccc(C(F)(F)F)c3)C(=O)[C@@H]2C1 -1.8%, CCOC(=O)c1cn(C2CN(C(=O)Cc3cccc(Cl)c3)C2)nn1 -0.217%, CCC(=O)N(C1CCOCC1)C1CCN(Cc2ccc(SC)cc2)CC1 50%, O=C1CCN(C(=O)Cc2ccccc2)CCCOCCN1 9.17%, COC(=O)[C@@H]1Cc2ncn(Cc3ccc(OC)cc3)c2CN1S(=O)(=O)c1ccccc1 -8.42%, CCC[C@@H]1CN(C(=O)c2cc(-c3cccs3)n(C)n2)C[C@H]1N(C)C 8.73%, CNC(=O)c1noc([C@@H]2CC(F)(F)CN2Cc2cccn2C)n1 -0.383%, CC(C)[C@H]1CN(CCS(C)(=O)=O)C[C@@H]1NC(=O)c1ccco1 -2.79%, Cc1ccccc1OCc1nc(C2CN(C(=O)c3nccc4ccccc34)C2)no1 -0.572%, COCCn1c(CO)nnc1C1CC(NC(=O)c2cc(C)n3nc(C)cc3n2)C1 (centres undefined) 7.18%, O=C(c1ccco1)N1CCC(N2CC3(CCCC3)C2c2ccccc2)CC1 (centres undefined) 5.34%, Cc1nc(C)c(C(=O)N2CCC(c3nnc(Cn4ccnc4)n3C)CC2)o1 3.06%, COc1ccc(-c2cnc3[nH]cc(CC(=O)Nc4ccc(C(F)(F)F)cc4)c3c2)cc1 80.1% [at 57.5 µM], O=C(NCC1(O)CCCNCC1)c1cccc(-c2ccc(F)cc2)c1 (centres undefined) -3.46%, CCn1ccnc1CN1CCCC(CO)(Cc2cccc(Cl)c2)C1 (centres undefined) -11.4%, CCCC1CN(Cc2ccc(OC)cc2)[S+](=O)([O-])c2cnccc2O1 (centres undefined) 1.9%, Cc1ccc(-c2noc(CNC(N)=O)n2)nn1 0.545%, COCc1ncc(C)n1CCNC(=O)c1ccc(OC)nc1OC 26.7%, Cn1cc(CN2C[C@H](C(=O)Nc3ccc(F)cc3)C[C@@H]2c2cccc(C(F)(F)F)c2)cn1 1.12%, CNC(=O)N1CCCC1c1nc(C2CN(C(=O)c3cnccn3)C2)no1 (centres undefined) 2.19%, COc1ccc(C(C)NC(=O)c2noc(-c3ccc(F)cc3)n2)cc1OC (centres undefined) -1.9%, COc1ccc(F)cc1-c1cccc(C(=O)NCC(=O)NCc2cccs2)c1 0.401%, C[C@H]1CCCN1C(=O)c1nnc(CNCCCn2ccnc2)n1-c1ccccc1 9.2% [at 57.5 µM], CCCN1C(=O)CCc2cc(NC(=O)NCCCOCC)ccc21 9.71%, Cc1cc(C(=O)N2CCCC(n3c(C)cnc3C3CCC3)C2)nn1C (centres undefined) 10.5%, Cc1ccc(CN2CCOCCNC(=O)[C@H]3CCCC[C@H]32)s1 -2.39%, Cc1cc(CN(C)C(=O)c2cc(COc3ccc4c(c3)OCO4)[nH]n2)on1 -0.402%, CC(C)N1C[C@@H](COC(C)(C)C)[C@H](c2ccccc2)[S+]1(=O)[O-] 24.4%, CN1CCN(S(=O)(=O)c2ccc(F)cc2)CC12CCNC(=O)CC2 (centres undefined) -0.368%, Cc1nn(-c2ccccc2)c(C)c1Cc1nc(C(C)C)no1 10.3%, CCN1Cc2ccccc2N(CC(O)Cc2ccccc2)CCC1=O (centres undefined) 8.16%, O=C(O)CO[C@@H]1COCC[C@H]1NC(=O)CCCn1cncn1 -4%, Cn1cc(-c2cnc(Nc3ccc(F)c(Cl)c3)c3c2CCO3)cn1 5.13% [at 57.5 µM], COc1ccc(N2CCN(C(=O)CC3CCCCN(C)C3=O)CC2)cc1 (centres undefined) -1.54%, O=C(c1ccc(F)cc1)N1CCC2(CNc3ccccc3[S+](=O)([O-])N2)C1 (centres undefined) 2.82%, Cc1ccc([S+](=O)([O-])NC[C@@H]2CC[C@H]3C[C@@H]2C3(C)C)cc1 1.05% [at 57.5 µM], O=C(Nc1ccccc1)N1CCC2(C1)C(=O)N(CCc1ccccc1)c1ccccc12 (centres undefined) -1.39%, C[C@@H](N)C(=O)N1CCC(C(=O)Nc2cccc(-c3cccc(Cl)c3)c2)CC1 -20.9%, c1ccc(CNc2cc(-c3cc(N4CCCCC4)ncn3)c3cc[nH]c3n2)nc1 0.144%, CCN(CC)c1ncccc1CNC(=O)Nc1cccc(OC)c1 -0.423%, CCC(=O)N1CCCC1c1nc(CCOCC2CCCC2)no1 (centres undefined) -6.49%, O=S(=O)(c1ccccc1)N1CCN(c2ccnc3ccnn23)CC1 36.7%, O=C(NC[C@H]1O[C@@H](CO)[C@@H](O)[C@H]1N1CCOCC1)c1cccs1 9.17% [at 57.5 µM], c1ccc(CCc2nc3nccc(-c4cccnc4)n3n2)cc1 12.3%, Cn1ncc(CN2CC[C@@H](c3ccc4c(c3)OCO4)[C@H](O)C2)c1C1CC1 0.38%, CCn1cc(CN2CCC(N3C(=O)C4(CCCCC4)C3c3ccncc3)CC2)cn1 (centres undefined) -3%, CCNC(=O)N1CCC(N2C(=O)C3(CCCC3)C2c2ccccc2)CC1 (centres undefined) -1.81%, COc1cc(C)c(-c2nc(Cn3cccn3)c(C)o2)cc1C 11.1%, Cc1nn(-c2ccccc2)c2c1C(C(C)C)N(C1CN([S+](=O)([O-])c3cccc(C(F)(F)F)c3)C1)C2=O (centres undefined) 24.4%, O=C(NCc1ccccc1)c1cnc2n1CCN(Cc1ccccc1)CC2 -0.0693% [at 57.5 µM], COc1ccc(-c2cc3nc4c(c(=O)n3[nH]2)CN(C(=O)c2ccc(C)nc2)CC4)cc1 -0.491%, CCn1cc(S(=O)(=O)N2CCC(C3CCN(C(=O)NC)CC3)C2)cn1 (centres undefined) -0.104%, Cc1cc(C)n(Cc2ccc(C(=O)N3CC4CC(C3)[C@H]3CCCC(=O)N3C4)o2)n1 (some centres undefined) 3.2%, COc1ccc(CC(=O)N2CCCC3(Cc4ccccc4CN3C(=O)C3CCCC3)C2)cc1 (centres undefined) 2.34%, CN(C)C[C@@H]1CN(C2CCOCC2)C[C@H]1NC(=O)c1nccc2ccccc12 -0.66%, COCCCN1CCC(CNc2nccc(-c3cnn(C)c3)n2)C1 (centres undefined) 5.91%, COc1ccc2cc1Nc1ccc(cc1)C[C@H](NCc1ccc3c(c1)CCO3)C(=O)N(C)[C@H](C(=O)NCCC(C)C)C2 -1.18%, COc1ccc2c(c1)C(CN1CCN(c3ccc4oc(C(=O)O)cc4c3Cl)CC1)=CC(C)(C)CO2 6.23%, O=C1COc2ccc(S(=O)(=O)N3CCCn4nc(CO)cc4C3)cc2N1 2.86%, CN1CCC(C(=O)N2Cc3ccccc3CC3(CCN(C)C3)C2)CC1 (centres undefined) 0.867%, c1cc(-c2nc(C3CCOC3)nn2Cc2ccc3c(c2)OCO3)[nH]n1 (centres undefined) 8.71%, O=C(c1ccc(C(F)(F)F)cc1)N1CCC2(C1)C(=NC1CCCCC1)NC(=O)N2c1cccnc1 (centres undefined) 5.4%, COc1ccc(Cc2nnc3ccc(C(=O)N4CCN(Cc5ccccc5)CC4)cn23)cc1 0.58%

— PubChem BioAssay AID1794845 (National Center for Advancing Translational Sciences (NCATS), 2023)
